Here are results for 60 molecules from PubChem BioAssay AID493014 (National Center for Advancing Translational Sciences (NCATS), 2011).

A short description of this assay: qHTS Assay to Find Inhibitors of Chronic Active B-Cell Receptor Signaling. The following applies: ABC-DLBCL IkBa-CBG/CBR reporter, luminescence ratio (green luciferase fused to IkBa over red control in TMD8 lymphoma cells), 4 h. Summed up:
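Doxycycline induced both beetle luciferases in TMD8 lymphoma cells; IKK-driven degradation limits the IkappaBalpha-fused green signal, while red luminescence normalises for cell number and nonspecific effects. Compounds tested up to 46 uM, 4 hrs.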
A general note: In qHTS, concentration-response curves come from the screen itself.

Setting [1] is: measured here: CBR red luminescence, cell number.
[2] abbreviates: measured here: IkBa-CBG green luminescence.

Some of the results follow. The main result of the screen is listed elsewhere. These columns were measured beside it and carry no call. The list favours compounds with an active or inconclusive main result. Words in brackets tell the shape of the fitted curve; partial curves, single points and poor fits give uncertain potencies.

As usually defined, the AC50 is the concentration giving half of the maximal activity seen.

As to `CC(C)Oc1ccc(C(=O)Nc2nc3ccccc3[nH]2)cc1`, the AC50 under setting [1] was 3.55 µM [falling, full curve].

On to `CSc1ccc(CCNC(=O)c2cc(-c3ccccc3)c(N3CCOCC3)s2)cc1`, for which, under setting [1], the concentration at half-maximal activity (AC50) was 5.62 µM [rising, single point].

On to `O=C1CN(c2nc(-c3cccs3)nc3sc4c(c23)CCCC4)CCN1`, for which the AC50 under setting [1] is 35.5 µM [falling, single point]. With `Cc1cccc(-n2cc(-c3ccccc3)c3c(NC(C)C)ncnc32)c1`, the half-maximal activity concentration (AC50) under setting [1] was 10 µM [rising, partial curve].

As for `Cc1ccc(C(=O)c2c(C)oc3c2C(=O)C(=O)c2ccccc2-3)cc1`, under setting [1], the AC50 was 35.5 µM [falling, single point]. The same measure, in the same setting: as for `COc1cc2c(cc1OC)CN(S(=O)(=O)c1ccccc1F)CC2`, the figure is 35.5 µM [falling, single point]; as for `CCc1cccc(CC)c1NC(=O)COC(=O)/C(C#N)=C/c1ccc(OC)cc1`, 25.9 µM [falling, partial curve, poor fit]. `O=C(O)CCCN1C(=O)/C(=C\c2ccccc2OCc2ccccc2)SC1=S`: the concentration at half-maximal activity (AC50) under setting [1] was 1.12 µM [falling, partial curve] and the concentration at half-maximal activity (AC50) under setting [2] is 2.82 µM [falling, partial curve, poor fit]. As for `O=S(=O)(Nc1nc2ccccc2nc1NCc1ccco1)c1ccc(Cl)cc1`, under setting [1], the AC50 is 13 µM [rising, partial curve, poor fit]. As for `CCCN(CCC)S(=O)(=O)c1ccc(Cl)c([N+](=O)[O-])c1`, the concentration at half-maximal activity (AC50) under setting [1] is 11.2 µM [falling, partial curve] and the AC50 under setting [2] is 15.8 µM [rising, partial curve, poor fit]. For `Cc1ccccc1C(=O)Nc1cccc(NC(=S)NC(=O)c2cccs2)c1`, the AC50 reads like this: under setting [1], 0.282 µM [falling, full curve, poor fit]; under setting [2], 12.6 µM [rising, partial curve, poor fit]. On to `COC(=O)c1c(NC(=O)C(Cl)Cl)sc2c1C(C(=O)OC)CC2` (stereo not given), for which the AC50 under setting [1] was 3.98 µM [rising, partial curve, poor fit].

In the case of `CC(C)(C)c1cc(OS(C)(=O)=O)ccc1O`, the concentration at half-maximal activity (AC50) under setting [1] was 3.16 µM [rising, full curve, poor fit].

With `Nc1cc(Cl)ccc1C(=O)OCC(=O)NC1CCCCCCC1`, the concentration at half-maximal activity (AC50) under setting [1] is 32.6 µM [rising, single point] and the AC50 under setting [2] was 16.4 µM [falling, partial curve, poor fit]. As for `COc1ccc(-c2c(C)cc3oc(=O)cc(-c4ccccc4)c3c2C)cc1C=O`, the AC50 under setting [1] was 5.8 µM [rising, partial curve, poor fit]. On the same count and under the same terms, in the case of `O=C(Nc1nnc(SCc2c(Cl)cccc2Cl)s1)C1CCCO1` (stereo not given) it was 12.6 µM [rising, single point]; in that of `CCOC(=O)C1=C(c2ccccc2)N=c2s/c(=C\c3cccc(O)c3)c(=O)n2C1c1cccs1` (stereo not given), 3.98 µM [rising, partial curve, poor fit]. With `O=C(Nc1cccnc1)c1cc(-c2ccco2)on1`, the half-maximal activity concentration (AC50) under setting [1] is 7.94 µM [falling, partial curve, poor fit]. The same measure, in the same setting: in the case of `COc1ccc(OCCCC(=O)Nc2cccc(C(C)=O)c2)cc1` it was 20.6 µM [falling, partial curve]; in that of `COc1ccc(/C=C2\SC(=O)N(CC(=O)NCCC(C)C)C2=O)cc1OC`, 7.08 µM [rising, full curve, poor fit].

Turning to `CCOC(=O)c1[nH]c(C)c(C(=O)OCC(=O)N2CCCCC2C)c1C` (stereo not given), under setting [1], the AC50 was 0.731 µM [falling, full curve, poor fit]. In the case of `CCOC(=O)c1c(C)oc2c1c1c(c3ccccc32)OCN(CCCC(=O)O)C1`, the AC50 under setting [1] is 0.282 µM [rising, full curve, poor fit]. As to `N#Cc1ccccc1OCC(=O)NC(=O)NCc1ccccc1`, the AC50 under setting [1] is 6.31 µM [falling, partial curve]. In the case of `CCOC(=O)N1CCN(C(=O)c2nn(C)c3c2CSc2ccccc2-3)CC1`, the AC50 under setting [1] was 0.355 µM [rising, full curve, poor fit]. Consider `Cc1noc(C)c1C(=O)OCC(=O)Nc1cccc(S(=O)(=O)N(C)C)c1`, for which the half-maximal activity concentration (AC50) under setting [1] was 9.2 µM [falling, partial curve]. On to `O=C(N/N=C/c1ccc[nH]1)c1c[nH]c2ccccc12`, for which the AC50 under setting [1] is 2.51 µM [falling, partial curve]. On to `O=C1C(Nc2ccccc2)=CC(c2ccc(O)cc2)N1c1ccccc1` (stereo not given), for which, under setting [1], the AC50 is 22.4 µM [falling, single point]. In the case of `CCC(NC(=S)NC1CCCCC1)c1ccc(C(C)C)cc1` (stereo not given), under setting [1], the AC50 is 28.2 µM [falling, single point].

As to `O=C(CCC(=O)OCc1ccc(C(=O)Oc2ccc(Cl)cc2)cc1)Nc1ccccc1`, under setting [1], the concentration at half-maximal activity (AC50) was 29.1 µM [rising, single point]. Same read-out and setting: as for `O=C(Nc1cccc2cccnc12)c1ccc(F)cc1`, the figure is 8.91 µM [falling, partial curve]; as for `CN(C)CCNC(=O)c1ccc2c(c1)NC(=O)c1ccccc1S2`, 8.91 µM [falling, partial curve, poor fit]. On the same count and under the same terms, in the case of `O=C(COc1ccc(S(=O)(=O)NC2CCCCC2)cc1)Nc1ccc2c(c1)OCCO2` it was 22.4 µM [falling, single point]. Take `Cc1onc(CO)c1C(=O)Nc1nccs1`: the AC50 was 3.98 µM [falling, partial curve] under setting [1] and 11.2 µM [rising, partial curve, poor fit] under setting [2].

Take `COc1cc(C2C(C#N)=C(N)OC3=C2C(=O)CC(C)(C)C3)cc([N+](=O)[O-])c1O` (stereo not given): the AC50 under setting [1] is 2.82 µM [falling, partial curve, poor fit]. Still for that read-out and setting: as for `CSc1ccccc1C(=O)Nc1ccc(C)c(C)c1`, the figure is 29.1 µM [falling, single point]; as for `O=C(Cc1ccccc1)N(Cc1cccnc1)c1nc2ccc(F)cc2s1`, 11.2 µM [falling, single point]; as for `CCN(CC(=O)NC(=O)NCc1ccccc1)Cc1nc2ccccc2c(=O)[nH]1`, 14.1 µM [falling, single point].

`CCC(C)N1C(=O)S/C(=C/c2ccc(N3CCOCC3)cc2C)C1=O` (stereo not given): the AC50 under setting [1] is 3.26 µM [rising, full curve, poor fit]. On the same count and under the same terms, in the case of `CCCONC(=O)Nc1ccccc1[N+](=O)[O-]` it was 18.4 µM [rising, partial curve, poor fit]; in that of `O=[N+]([O-])c1cccc(S(=O)(=O)Nc2ccc(Cc3ccncc3)cc2)c1`, 1.26 µM [falling, full curve, poor fit]; in that of `COC(C(=O)Nc1ccnn1C1CCN(Cc2ccccn2)CC1)c1ccccc1` (stereo not given), 1 µM [falling, partial curve].

Consider `CC(C)Sc1nc(SCC(=O)O)c2c3c(sc2n1)COC(C)(C)C3`, for which, under setting [1], the half-maximal activity concentration (AC50) was 1.26 µM [falling, full curve, poor fit]. `Cc1cc(C(=O)N[C@H](c2ccccc2)[C@@]2(C)C[C@@H]2[C@@H](C)C(=O)Nc2ccc3ccccc3c2)n(C)n1`: the AC50 under setting [1] was 2.06 µM [rising, partial curve, poor fit]. Turning to `CC(=O)OCC(=O)[C@@]12OC(C)(C)O[C@@H]1C[C@H]1[C@@H]3C[C@H](F)C4=CC(=O)C=C[C@]4(C)[C@@]3(F)[C@@H](O)C[C@@]12C`, under setting [2], the AC50 was 0.103 µM [falling, partial curve, poor fit]. On to `N=c1c2c(-c3ccccc3)c(-c3ccccc3)n(Cc3ccco3)c2ncn1Cc1ccccc1`, for which, under setting [1], the concentration at half-maximal activity (AC50) was 23.1 µM [falling, partial curve, poor fit]. On to `COc1ccc(/C=C\c2cc(OC)c(OC)cc2CC[N+](C)(C)C)cc1OC`, for which, under setting [1], the concentration at half-maximal activity (AC50) was 35.5 µM [rising, single point]. For `COC(=O)C1=CO[C@@H](C)[C@H]2CN3CCc4c([nH]c5ccccc45)[C@@H]3C[C@H]12`, the AC50 under setting [1] is 25.9 µM [falling, single point]. On to `Cc1c(C)n(C(=O)CSc2nccn2C)c2ccccc12`, for which the half-maximal activity concentration (AC50) under setting [1] is 17.8 µM [falling, single point]. Consider `Cc1cccc(C(=O)N2c3ccccc3C(=O)OC2c2ccc3c(c2)OCO3)c1` (stereo not given), for which the concentration at half-maximal activity (AC50) under setting [1] was 3.55 µM [falling, full curve]. As for `Cc1ccc(/C=C/C(=O)OCC(=O)N2CC(=O)Nc3ccccc32)o1`, under setting [1], the AC50 was 17.8 µM [rising, partial curve, poor fit].

Consider `O=C(N/N=C/c1c[nH]c2ccc(Br)cc12)c1ccn(Cc2ccc(Cl)cc2)n1`, for which the AC50 under setting [1] was 22.4 µM [falling, single point]. On the same count and under the same terms, in the case of `Cc1ccccc1N1CC(O)(c2ccccc2)[N+]2=C1SCC2` (stereo not given) it was 25.9 µM [falling, single point]; in that of `COCCn1c(SCC(=O)Nc2ccc(NC(=O)c3ccco3)c(OC)c2)nc2ccccc2c1=O`, 25.9 µM [rising, partial curve, poor fit]. Still for that read-out and setting: as for `O=C(CC1NCCc2ccccc21)Nc1ccccc1Cl` (stereo not given), the figure is 35.5 µM [falling, single point].

`Cc1ccc(N(C(=O)Cn2nnc3ccccc32)C(C(=O)NCc2ccco2)c2cccnc2)cc1` (stereo not given): under setting [1], the AC50 was 17.8 µM [rising, single point].

`Cc1ccc(Nc2nnc(-c3ccc4c(c3)OCO4)o2)c(C)c1`: the AC50 under setting [1] was 7.94 µM [falling, partial curve]. On the same count and under the same terms, as for `COCCCNC(=O)Nc1ccc(F)cc1F`, the figure is 6.51 µM [rising, single point]; as for `CC(C)n1ncc2c(C(=O)NCC(=O)Nc3ccccc3Br)cc(C3CC3)nc21`, 29.1 µM [falling, single point]; as for `CC(C)C(c1nnnn1Cc1ccc(F)cc1)N1CCN(C2CCCCC2)CC1` (stereo not given), 3.98 µM [falling, full curve, poor fit].

As for `Cc1ccc(-n2c(C)cc(/C=N/Nc3ccc([N+](=O)[O-])cn3)c2C)cc1`, the AC50 under setting [1] is 6.31 µM [rising, full curve, poor fit].
